Assay [1] deals with human TIGIT (gD-tagged) on the surface of stable 293-TIGIT cells (human). The assay can be described thus: flow cytometry, 10A7 on stable 293-TIGIT cells, without PVR-Fc. Background: Flow cytometry measures light scatter and fluorescence of single cells or particles in a stream.
Assay [2] shares this target. As to the kind of experiment: flow cytometry on 293-TIGIT cells.

No constants are given. Whether binding was seen depends on the method and setting. Some entries that bind do so weakly or less than the wild type.

B1: anti-TIGIT antibody 10A7 (hamster anti-murine TIGIT monoclonal antibody) (antibody, V domains shown)
VH: EVQLVESGGGLTQPGKSLKLSCEASGFTFSSFTMHWVRQSPGKGLEWVAFIRSGSGIVFYADAVRGRFTISRDNAKNLLFLQMNDLKSEDTAMYYCARRPLGHNTFDSWGQGTLVTVSS
VL: DIVMTQSPSSLAVSPGEKVTMTCKSSQSLYYSGVKENLLAWYQQKPGQSPKLLIYYASIRFTGVPDRFTGSGSGTDYTLTITSVQAEDMGQYFCQQGINNPLTFGDGTKLEIKR
In the case of B1, the binding entry in assay [1] and in assay [2] was “binds” each time.

Source of the values: patent US20090258013A1.
